According to the supplement of paper PMC3334620:
Whole data set: some 33,000 sequences, median “E-score (-0.5 to 0.5)” near -0.0014, cut for the highest 2% near 0.25. The list shows a part of the results.

target: T1, Cad1 (UniProt P24813); experiment: PBM E-score (8-mer binding enrichment) (E-score (-0.5 to 0.5)); higher = stronger / more preferred TF binding; conditions: protein concentration: 100 nM; construct: GST-full length
T1 sequence: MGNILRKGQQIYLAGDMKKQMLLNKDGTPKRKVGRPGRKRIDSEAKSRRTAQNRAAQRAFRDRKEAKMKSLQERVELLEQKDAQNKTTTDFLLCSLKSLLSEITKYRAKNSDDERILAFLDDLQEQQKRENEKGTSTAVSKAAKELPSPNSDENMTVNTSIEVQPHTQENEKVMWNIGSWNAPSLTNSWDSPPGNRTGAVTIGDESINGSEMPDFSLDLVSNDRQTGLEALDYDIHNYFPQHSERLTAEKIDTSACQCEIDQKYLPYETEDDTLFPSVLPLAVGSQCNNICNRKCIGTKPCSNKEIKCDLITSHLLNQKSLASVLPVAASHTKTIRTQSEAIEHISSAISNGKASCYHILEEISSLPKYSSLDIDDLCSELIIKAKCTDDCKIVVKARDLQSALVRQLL
Method in brief: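 Yeast transcription factors carrying a GST tag, as full-length proteins or DNA-binding domains, were produced by PURExpress in vitro transcription/translation. About 100-200 nM protein was applied to universal all-10-mer Agilent arrays, double-stranded by primer extension on fresh or once-stripped slides. Bound protein was detected with fluorescent anti-GST, and scans were normalised with masliner. The Universal PBM Analysis Suite gave each ungapped eight-base word, pooled with its reverse complement, an E-score, a modified Wilcoxon-Mann-Whitney statistic.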

Sequence | PBM E-score
ATGGCATG | 0.0153
CTATCGAC | -0.165
AGGGCTCA | -0.206
ACAGTACT | 0.0731
CTCCCGTC | 0.163
AATCGGGA | 0.0186
GCTCGGCC | -0.115
GCAAAGCA | -0.0559
AGTCAACT | -0.189
CTAGTGCA | 0.128
CTGTACGC | -0.0413
GCCGAAAA | 0.217
CCAAGCTC | -0.0587
CACAATAA | 0.137
CAGTATTC | 0.131
GCCAAACA | -0.0345
TGTGCCAA | 0.175
GCCGCACC | -0.0235
CCTGACAG | 0.0367
ACAAATTC | 0.152
CAATCGGC | 0.0586
ATGGAGGC | -0.197
CATACAGA | 0.206
ATGCCTGC | -0.073
CTACGTAA | 0.108

Taken from above.
PBM E-score, CTACGTAA is entered as 0.108
PBM E-score, CAGTATTC is entered as 0.131
PBM E-score, CCTGACAG is entered as 0.0367
PBM E-score, GCCGAAAA is entered as 0.217

(continued)

Sequence | PBM E-score
AAGTTCGA | 0.194
AGCGACAA | -0.177
AAGGTTTG | -0.00394
CTTCTGCC | -0.138
GTTTGGCA | 0.0649
AAGCTTGT | 0.102
GCCGTCAA | -0.0115
CGAGCTTA | 0.214
CCTGATCC | -0.1
AAATACCC | 0.136
TATGGCAA | 0.0518
CCTATCTC | -0.157
CTGGAGCA | -0.0242
GACGGCTC | -0.191
CCAGTTAG | -0.0417
CTGCCCAG | -0.179
CTGCTTAA | 0.0117
GGCTAGAC | -0.118
CGGCAACG | 0.0924
CAGCTAAG | 0.0783
CTGAAGTA | 0.0255
ACAACGTG | -0.0612
ATGGTTAG | 0.136
CTCCACAC | -0.122
GCAAATCC | 0.132

Retrieved one by one from the list above:
Sequence | PBM E-score
CTTCTGCC | -0.138
CTGCTTAA | 0.0117
CTGCCCAG | -0.179
CTGAAGTA | 0.0255
GCCGTCAA | -0.0115

Going on with the list:

Sequence | PBM E-score
AGCATCCA | -0.168
CGGTAATC | -0.105
CTATCCTA | -0.0982
GCCGCCAC | -0.217
CTGCAAAG | 0.0553
GGGGAGCA | -0.403
AACCGGAG | -0.00163
GCCTGTTA | -0.167
AGATGAAG | -0.278
GGCAACCA | 0.123
AGGGGCTG | 0.163
ATTTCTTC | 0.23
ACTCATGG | -0.0232
CCGTAGCC | -0.233
ACTTACTG | -0.0123
CTCGAACA | 0.0819
CAATTGAC | 0.137
AGTTCTAC | -0.0875
ACCGACCG | -0.066
CCATTGCA | -0.0333
ATTTGGCA | 0.109
GAGACTCA | 0.114
CCACCGCC | -0.121
GGATACCA | 0.0336
GATACCGA | -0.114

Sequence | PBM E-score
GAGAGTAC | -0.103
AAAGCCTC | -0.186
AGGGAGTC | -0.133
AAGGTCGT | 0.0718
TATGCCAA | -0.0304
CCGGTGAA | 0.00995
CGGAGCTA | -0.00607
AGGTGGCA | -0.159
AGTGGAGC | -0.12
ATAAATCA | 0.194
GCATTAGA | 0.11
CCCTGCAC | -0.0891
GCGCCGAC | -0.137
CTACGGAA | 0.0189
AACTTGAC | 0.0523
AGGTGCTC | -0.323
CCACTTAA | 0.00388
ACAGTTGC | 0.0412
ATTTACCA | 0.182
CCGCTTCC | -0.0312
AGCCCCAC | -0.15
AAACTCGC | -0.0694
AAGAGATC | -0.062
CATCTACG | 0.0801
GCAGAGGA | 0.0638

Sequence | PBM E-score
GGGCTGGA | -0.0401
CGTTCAAG | 0.0453
ACAGTGGC | 0.0426
CAGTAACG | 0.0171
TACCTCGA | 0.015
TCCCATAA | -0.089
AACACAGT | 0.0635
CCGTGACG | 0.0325
AATTGGCG | 0.0732
AGGGGAAA | -0.149
AACTGCGC | -0.0153
AAGATTGT | 0.0724
ATTACTCC | 0.0689
GTAGCCAC | -0.0635
GATGATGA | -0.0136
AAGATTTG | 0.0678
CAACGTCC | -0.178
CTATTTGC | -0.0458
GAGTAGGA | -0.0293
AAGATATC | 0.172
CAACTAGA | -0.183
GCGGCTTA | 0.227
GTCAAATA | 0.111
CTTATATA | 0.331
AAATTACA | 0.191

Sequence | PBM E-score
CGCACTTC | -0.184
CCTCGTTA | -0.104
ACTATGCG | -0.127
CACGGCTC | -0.0342
GCGTACAA | 0.0865
ACTCAGCG | 0.148
GGGCAAGA | 0.0533
CTCGCATC | -0.0326
AGCATGAA | 0.0622
AATGGTCT | -0.0157
ATGACCTC | -0.125
GATTAGAA | 0.0793
CCGTTTAC | 0.146
CATGTACA | 0.00541
CTTCAGAC | -0.00671
CTATGTTA | 0.0633
AAGTGTGC | 0.125
CACTACCA | 0.029
GCTGTTAC | -0.0804
GTAGAGAC | -0.175
AACCAACT | 0.0417
ATTTGGTC | 0.139
ACATAACC | -0.0477
CCTTTTGA | -0.0567
CAGCGTGG | -0.154

Sequence | PBM E-score
ACGCATCC | -0.189
CTTTCAGC | -0.0777
GCCGAGAA | -0.0344
AGTTTCTA | -0.148
CTCCAAAA | -0.0998
CAAGCACC | -0.23
GACTCGAC | -0.231
CTTACCTA | 0.0732
TCGATTAA | 0.301
AGTGCGCC | -0.0701
CGGCTATA | 0.0801
AACCCCTT | -0.188
CTAGCGCC | -0.00359
ACCACACG | 0.049
GCCTGGTA | 0.0275
CATGGAGG | -0.186
GGTCTAAC | -0.0553
CACTGTGA | -0.0187
CTCTTGAA | -0.138
CGACGGGA | 0.11
AGTAGTAA | 0.0579
AGATATCG | -0.00054
